# From the supplement of paper PMC12067093, “Discovery and optimisation of a covalent ligand for TRIM25 and its application to targeted protein ubiquitination” (Chemical Science, 2025)
# Sequences of proteins named here, by UniProt entry; tags and fusion partners are left off. A change or cut given only in a name is not applied to a line headed by its entry.
# UniProt Q9HCD5: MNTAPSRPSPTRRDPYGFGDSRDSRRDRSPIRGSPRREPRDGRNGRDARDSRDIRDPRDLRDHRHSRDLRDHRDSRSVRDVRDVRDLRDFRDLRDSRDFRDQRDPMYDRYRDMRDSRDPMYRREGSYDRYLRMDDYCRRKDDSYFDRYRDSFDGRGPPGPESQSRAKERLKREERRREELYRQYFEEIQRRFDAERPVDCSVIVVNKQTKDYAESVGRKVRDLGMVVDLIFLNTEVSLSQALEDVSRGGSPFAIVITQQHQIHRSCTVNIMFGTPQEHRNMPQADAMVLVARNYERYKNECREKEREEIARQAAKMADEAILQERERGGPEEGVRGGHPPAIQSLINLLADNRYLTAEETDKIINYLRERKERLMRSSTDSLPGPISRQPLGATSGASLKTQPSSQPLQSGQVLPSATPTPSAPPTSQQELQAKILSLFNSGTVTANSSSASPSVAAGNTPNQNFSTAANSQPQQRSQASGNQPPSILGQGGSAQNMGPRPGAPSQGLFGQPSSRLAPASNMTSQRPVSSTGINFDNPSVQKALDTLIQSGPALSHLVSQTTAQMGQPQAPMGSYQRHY
# UniProt Q6ZNB6: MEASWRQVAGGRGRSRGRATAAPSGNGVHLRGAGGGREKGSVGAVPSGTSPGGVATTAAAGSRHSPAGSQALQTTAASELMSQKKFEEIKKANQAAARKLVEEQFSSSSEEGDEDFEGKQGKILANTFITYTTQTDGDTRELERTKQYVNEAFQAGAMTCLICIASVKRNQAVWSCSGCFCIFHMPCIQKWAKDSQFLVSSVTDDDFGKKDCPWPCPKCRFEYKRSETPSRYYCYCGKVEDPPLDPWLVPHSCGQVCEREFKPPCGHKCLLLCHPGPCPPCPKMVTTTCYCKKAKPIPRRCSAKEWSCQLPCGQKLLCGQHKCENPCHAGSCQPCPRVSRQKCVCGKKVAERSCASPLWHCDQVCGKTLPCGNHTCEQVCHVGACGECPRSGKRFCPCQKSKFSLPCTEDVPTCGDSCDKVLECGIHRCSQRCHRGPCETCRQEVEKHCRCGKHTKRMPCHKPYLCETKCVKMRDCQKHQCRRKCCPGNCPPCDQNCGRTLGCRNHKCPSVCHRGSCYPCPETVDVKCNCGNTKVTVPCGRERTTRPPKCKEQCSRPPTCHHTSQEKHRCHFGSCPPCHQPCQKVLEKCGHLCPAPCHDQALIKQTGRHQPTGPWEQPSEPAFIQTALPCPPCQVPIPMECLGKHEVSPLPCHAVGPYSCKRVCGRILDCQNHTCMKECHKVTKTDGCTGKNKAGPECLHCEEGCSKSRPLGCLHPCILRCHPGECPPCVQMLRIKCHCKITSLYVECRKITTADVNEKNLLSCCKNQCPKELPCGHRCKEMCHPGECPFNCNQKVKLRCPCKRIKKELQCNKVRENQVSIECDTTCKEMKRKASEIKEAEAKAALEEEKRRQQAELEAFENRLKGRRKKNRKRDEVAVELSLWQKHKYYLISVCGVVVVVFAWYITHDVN
# UniProt P55160: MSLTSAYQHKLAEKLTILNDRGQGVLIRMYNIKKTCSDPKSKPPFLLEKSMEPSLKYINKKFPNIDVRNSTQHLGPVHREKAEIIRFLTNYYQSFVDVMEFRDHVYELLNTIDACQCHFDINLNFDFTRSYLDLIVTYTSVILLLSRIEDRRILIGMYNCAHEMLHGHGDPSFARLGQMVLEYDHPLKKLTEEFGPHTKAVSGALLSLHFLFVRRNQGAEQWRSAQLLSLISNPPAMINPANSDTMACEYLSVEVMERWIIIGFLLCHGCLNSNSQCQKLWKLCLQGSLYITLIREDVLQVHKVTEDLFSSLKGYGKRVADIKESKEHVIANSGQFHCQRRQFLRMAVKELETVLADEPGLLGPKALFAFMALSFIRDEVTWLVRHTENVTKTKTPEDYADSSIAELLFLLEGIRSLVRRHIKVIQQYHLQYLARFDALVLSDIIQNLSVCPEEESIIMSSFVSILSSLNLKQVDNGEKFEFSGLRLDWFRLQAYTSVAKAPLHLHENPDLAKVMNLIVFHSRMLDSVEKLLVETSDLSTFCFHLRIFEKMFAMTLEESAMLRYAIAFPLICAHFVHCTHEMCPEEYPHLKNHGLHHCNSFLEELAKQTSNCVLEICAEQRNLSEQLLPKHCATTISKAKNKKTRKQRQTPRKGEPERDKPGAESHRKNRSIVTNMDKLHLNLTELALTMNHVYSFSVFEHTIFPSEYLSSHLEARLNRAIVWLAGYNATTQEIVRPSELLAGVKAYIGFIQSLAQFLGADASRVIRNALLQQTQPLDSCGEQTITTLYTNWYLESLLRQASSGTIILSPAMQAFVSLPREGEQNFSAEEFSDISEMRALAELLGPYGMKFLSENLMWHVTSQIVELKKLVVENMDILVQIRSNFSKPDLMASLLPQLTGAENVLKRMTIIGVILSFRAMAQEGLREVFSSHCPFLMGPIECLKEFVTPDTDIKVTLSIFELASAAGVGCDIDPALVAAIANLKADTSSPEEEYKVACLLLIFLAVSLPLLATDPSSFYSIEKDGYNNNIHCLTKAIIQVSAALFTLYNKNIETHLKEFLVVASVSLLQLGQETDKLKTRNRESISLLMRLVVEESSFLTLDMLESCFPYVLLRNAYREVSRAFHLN
# UniProt O43678, whole entry, looked up: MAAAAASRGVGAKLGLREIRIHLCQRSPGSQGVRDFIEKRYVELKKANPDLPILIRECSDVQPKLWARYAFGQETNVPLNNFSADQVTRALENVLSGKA
# UniProt O15226: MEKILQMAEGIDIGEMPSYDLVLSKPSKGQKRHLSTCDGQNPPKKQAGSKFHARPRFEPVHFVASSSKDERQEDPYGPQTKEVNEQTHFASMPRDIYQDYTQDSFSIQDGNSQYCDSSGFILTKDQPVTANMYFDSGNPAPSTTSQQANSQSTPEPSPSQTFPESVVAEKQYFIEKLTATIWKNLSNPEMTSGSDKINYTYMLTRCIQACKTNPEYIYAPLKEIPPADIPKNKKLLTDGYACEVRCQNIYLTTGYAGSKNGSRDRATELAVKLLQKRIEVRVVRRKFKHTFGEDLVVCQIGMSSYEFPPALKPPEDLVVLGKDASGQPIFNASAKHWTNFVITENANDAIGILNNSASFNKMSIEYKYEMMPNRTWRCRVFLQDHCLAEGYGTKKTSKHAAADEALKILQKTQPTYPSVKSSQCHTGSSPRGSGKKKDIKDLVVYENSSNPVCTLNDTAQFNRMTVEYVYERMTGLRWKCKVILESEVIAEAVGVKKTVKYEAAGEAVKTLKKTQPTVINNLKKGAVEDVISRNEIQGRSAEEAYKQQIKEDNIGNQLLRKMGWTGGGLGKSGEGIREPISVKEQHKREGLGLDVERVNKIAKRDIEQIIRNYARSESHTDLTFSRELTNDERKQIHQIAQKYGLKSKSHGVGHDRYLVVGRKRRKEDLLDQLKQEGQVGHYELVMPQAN
# UniProt Q92597: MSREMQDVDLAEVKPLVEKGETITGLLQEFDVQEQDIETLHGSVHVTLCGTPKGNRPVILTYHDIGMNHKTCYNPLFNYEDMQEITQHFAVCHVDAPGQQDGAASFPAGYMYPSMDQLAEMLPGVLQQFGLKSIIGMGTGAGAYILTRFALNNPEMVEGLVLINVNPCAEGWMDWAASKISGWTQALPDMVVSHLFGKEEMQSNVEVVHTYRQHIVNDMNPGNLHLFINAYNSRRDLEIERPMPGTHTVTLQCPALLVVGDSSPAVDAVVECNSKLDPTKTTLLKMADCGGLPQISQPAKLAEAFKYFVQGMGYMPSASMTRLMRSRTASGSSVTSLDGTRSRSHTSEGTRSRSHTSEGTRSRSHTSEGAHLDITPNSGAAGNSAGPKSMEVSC
# UniProt Q8NCF5: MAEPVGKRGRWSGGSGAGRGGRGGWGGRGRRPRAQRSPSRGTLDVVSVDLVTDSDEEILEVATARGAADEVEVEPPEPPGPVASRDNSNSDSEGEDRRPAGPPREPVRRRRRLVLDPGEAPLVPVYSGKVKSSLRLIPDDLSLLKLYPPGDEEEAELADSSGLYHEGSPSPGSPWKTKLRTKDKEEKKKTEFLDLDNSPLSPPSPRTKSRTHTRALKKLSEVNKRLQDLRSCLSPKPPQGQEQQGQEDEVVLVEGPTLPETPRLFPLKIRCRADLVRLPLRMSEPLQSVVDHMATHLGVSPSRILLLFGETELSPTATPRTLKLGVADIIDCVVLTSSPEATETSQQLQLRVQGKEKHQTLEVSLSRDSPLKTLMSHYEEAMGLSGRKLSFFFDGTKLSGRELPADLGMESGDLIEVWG
# UniProt Q12986: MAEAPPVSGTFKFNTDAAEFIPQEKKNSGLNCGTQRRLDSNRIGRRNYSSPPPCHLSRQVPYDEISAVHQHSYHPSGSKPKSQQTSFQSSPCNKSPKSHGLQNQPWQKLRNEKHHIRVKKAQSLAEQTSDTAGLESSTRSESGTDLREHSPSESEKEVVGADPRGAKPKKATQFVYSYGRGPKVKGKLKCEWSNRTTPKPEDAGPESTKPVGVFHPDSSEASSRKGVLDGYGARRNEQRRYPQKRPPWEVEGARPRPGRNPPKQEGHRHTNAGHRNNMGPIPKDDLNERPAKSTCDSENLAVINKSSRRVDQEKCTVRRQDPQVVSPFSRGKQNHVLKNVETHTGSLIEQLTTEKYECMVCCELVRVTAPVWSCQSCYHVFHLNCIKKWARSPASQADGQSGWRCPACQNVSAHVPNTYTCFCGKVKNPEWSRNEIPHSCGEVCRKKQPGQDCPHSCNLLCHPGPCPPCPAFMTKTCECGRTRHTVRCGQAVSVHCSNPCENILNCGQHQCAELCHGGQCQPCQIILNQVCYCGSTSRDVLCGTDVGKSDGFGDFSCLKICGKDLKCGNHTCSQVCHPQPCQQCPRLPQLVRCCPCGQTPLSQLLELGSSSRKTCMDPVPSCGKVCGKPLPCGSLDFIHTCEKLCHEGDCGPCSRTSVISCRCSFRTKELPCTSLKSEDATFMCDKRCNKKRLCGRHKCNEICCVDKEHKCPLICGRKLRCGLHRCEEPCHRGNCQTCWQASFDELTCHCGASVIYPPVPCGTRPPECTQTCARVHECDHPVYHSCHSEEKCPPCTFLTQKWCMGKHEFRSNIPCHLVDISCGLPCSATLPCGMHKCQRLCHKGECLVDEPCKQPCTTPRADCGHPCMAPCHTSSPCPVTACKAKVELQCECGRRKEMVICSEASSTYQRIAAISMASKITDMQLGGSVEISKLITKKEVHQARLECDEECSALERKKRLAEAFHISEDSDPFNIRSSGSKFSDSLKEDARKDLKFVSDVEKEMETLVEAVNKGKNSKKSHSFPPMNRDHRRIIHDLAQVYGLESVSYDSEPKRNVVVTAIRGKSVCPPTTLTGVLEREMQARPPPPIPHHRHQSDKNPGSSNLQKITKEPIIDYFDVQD
# UniProt Q9BYG3: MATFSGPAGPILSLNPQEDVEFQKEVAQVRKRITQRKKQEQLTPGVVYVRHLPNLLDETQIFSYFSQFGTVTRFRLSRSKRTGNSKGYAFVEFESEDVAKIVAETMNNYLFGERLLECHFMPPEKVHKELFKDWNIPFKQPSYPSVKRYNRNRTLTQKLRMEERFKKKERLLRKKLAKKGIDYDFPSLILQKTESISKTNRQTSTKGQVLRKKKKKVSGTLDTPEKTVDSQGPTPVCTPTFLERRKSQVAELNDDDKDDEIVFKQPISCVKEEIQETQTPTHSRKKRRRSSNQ
# UniProt Q9BU61: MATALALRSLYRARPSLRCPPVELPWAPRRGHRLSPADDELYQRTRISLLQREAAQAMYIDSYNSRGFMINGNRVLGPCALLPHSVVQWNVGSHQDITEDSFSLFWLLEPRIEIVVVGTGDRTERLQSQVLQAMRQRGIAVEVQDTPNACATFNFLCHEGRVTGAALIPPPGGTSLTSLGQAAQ
# UniProt Q96IV0: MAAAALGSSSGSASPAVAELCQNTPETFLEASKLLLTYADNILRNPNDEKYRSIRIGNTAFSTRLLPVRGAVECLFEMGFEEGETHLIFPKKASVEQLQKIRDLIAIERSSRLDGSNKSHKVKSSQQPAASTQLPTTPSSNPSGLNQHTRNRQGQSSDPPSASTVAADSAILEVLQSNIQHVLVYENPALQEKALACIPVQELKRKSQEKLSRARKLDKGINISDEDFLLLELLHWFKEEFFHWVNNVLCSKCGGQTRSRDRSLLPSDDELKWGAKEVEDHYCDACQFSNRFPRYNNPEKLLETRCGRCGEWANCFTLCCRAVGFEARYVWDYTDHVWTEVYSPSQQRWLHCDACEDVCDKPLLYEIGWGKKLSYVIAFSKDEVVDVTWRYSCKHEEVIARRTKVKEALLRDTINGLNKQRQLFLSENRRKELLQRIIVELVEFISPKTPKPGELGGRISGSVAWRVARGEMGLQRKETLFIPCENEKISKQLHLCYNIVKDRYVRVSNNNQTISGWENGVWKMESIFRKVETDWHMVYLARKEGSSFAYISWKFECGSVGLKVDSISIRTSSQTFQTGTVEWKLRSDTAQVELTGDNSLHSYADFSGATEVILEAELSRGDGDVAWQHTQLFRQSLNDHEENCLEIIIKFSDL
# The other results are listed elsewhere or left out.
# Compound: Cc1cc(ccc1-c1ccccc1)C(=O)N1CCCN(CC1)C(=O)CCl [compound 10]
# Experiment: probe-labelled cysteine peptide fold change vs DMSO (competition) (log2 fold change); higher = less target engagement (more negative = stronger competition)
# Settings: THP-1, incubation time: 4 h
# 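Also: competitive profiling in live THP-1 cells: cysteine peptides tagged with an iodoacetamide desthiobiotin (IA-DTB) probe, intensity after compound treatment relative to DMSO-treated cells.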
Target,probe-labelled cysteine peptide fold change (10 µM),probe-labelled cysteine peptide fold change (50 µM)
NF1_P21359_434_IDAVYCHSVELR (UniProt P21359),-0.0794,0.0569
NIN_Q8N4C6_1261_LLYEDVSRENDCLQEELR (UniProt Q8N4C6),-0.041,-0.0558
NEDD1_Q8NHV4_607_FIQNMIQETLDDFREACHR (UniProt Q8NHV4),0.374,0.223
NCOA5_Q9HCD5_200_RFDAERPVDCSVIVVNK (UniProt Q9HCD5),0.081,0.00246
NELFCD_Q8IXH7_397_AVETVHNLCCNENK (UniProt Q8IXH7),0.0405,-0.133
NFXL1_Q6ZNB6_371_TLPCGNHTCEQVCHVGACGECPR (UniProt Q6ZNB6),0.173,0.0829
NCKAP1L_P55160_598_NHGLHHCNSFLEELAK (UniProt P55160),-0.0406,-0.242
NDUFV1_P49821_125_YLVVNADEGEPGTCK (UniProt P49821),-0.253,-0.07
NFKB1_P19838_161_MTEACIR (UniProt P19838),0.158,0.0895
NDUFA2_O43678_58_ECSDVQPK (UniProt O43678),-0.309,-0.259
NDUFB7_P17568_80_DSFPNFLACK (UniProt P17568),-0.134,-0.00935
NCOR2_Q9Y618_1289_KGHVLSYEGGMSVTQCSK (UniProt Q9Y618),-0.194,-0.401
NCKIPSD_Q9NZQ3_412_CYLEELLHILTDADPEVCKK (UniProt Q9NZQ3),0.0422,-0.25
NEMF_O60524_575_YLTPGDIYVHADLHGATSCVIK (UniProt O60524),0.142,0.325
NKRF_O15226_37_HLSTCDGQNPPKK (UniProt O15226),0.0897,-0.593
NFAT5_O94916_270_KSPMLCGQYPVK (UniProt O94916),-0.106,-0.791
NDRG1_Q92597_394_SMEVSC (UniProt Q92597),-0.504,-0.206
NKRF_O15226_242_LLTDGYACEVR (UniProt O15226),0.0704,-0.331

# Complete entries from above.
# NCOA5_Q9HCD5_200_RFDAERPVDCSVIVVNK (UniProt Q9HCD5) as listed: probe-labelled cysteine peptide fold change (10 µM) = 0.081; probe-labelled cysteine peptide fold change (50 µM) = 0.00246
# NFXL1_Q6ZNB6_371_TLPCGNHTCEQVCHVGACGECPR (UniProt Q6ZNB6) as listed: probe-labelled cysteine peptide fold change (10 µM) = 0.173; probe-labelled cysteine peptide fold change (50 µM) = 0.0829

# More records follow.

Target,probe-labelled cysteine peptide fold change (10 µM),probe-labelled cysteine peptide fold change (50 µM)
NFATC2IP_Q8NCF5_332_LGVADIIDCVVLTSSPEATETSQQLQLR (UniProt Q8NCF5),0.0383,0.0833
NDC80_O14777_342_VELECETIK (UniProt O14777),0.11,0.192
NEK9_Q8TD19_487_VAGPEVLEPMQLNFFLSNPVEQVSCGDNHVVVLTR (UniProt Q8TD19),0.234,-0.00579
NFXL1_Q6ZNB6_713_SRPLGCLHPCILR (UniProt Q6ZNB6),-0.0587,-0.194
NCOA4_Q13772_244_ACNFFNNVGGNLK (UniProt Q13772),0.0261,-0.294
NFKBIB_Q15653_240_DAGADLDKPEPTCGR (UniProt Q15653),-0.396,-0.167
NFX1_Q12986_362_YECMVCCELVR (UniProt Q12986),0.202,-0.0121
NIFK_Q9BYG3_237_TVDSQGPTPVCTPTFLER (UniProt Q9BYG3),-0.298,-0.0996
NID1_P14543_685_EGSPDALQNPCYIGTHGCDTNAACRPGPR (UniProt P14543),0.398,0.166
NFATC2_Q13469_355_HIYPAVEFLGPCEQGER (UniProt Q13469),-0.364,-0.297
NCKIPSD_Q9NZQ3_429_CYLEELLHILTDADPEVCKK (UniProt Q9NZQ3),-0.207,-0.598
NF1_P21359_1486_RFFLDIASDCPTSDAVNHSLSFISDGNVLALHR (UniProt P21359),0.0812,-0.305
NDUFAF3_Q9BU61_150_GIAVEVQDTPNACATFNFLCHEGR (UniProt Q9BU61),0.338,-0.204
NECAP2_Q9NVZ3_11_MEESGYESVLCVKPDVHVYR (UniProt Q9NVZ3),-0.161,-0.0571
NIT1_Q86X76-2_16_AISSSSCELPLVAVCQVTSTPDK (UniProt Q86X76),0.0369,0.129
NKRF_O15226_386_VFLQDHCLAEGYGTKK (UniProt O15226),-0.0306,-0.547
NIT1_Q86X76_80_LGACLAFLPEAFDFIARDPAETLHLSEPLGGK (UniProt Q86X76),0.761,-0.152
NGLY1_Q96IV0_352_WLHCDACEDVCDKPLLYEIGWGK (UniProt Q96IV0),0.104,0.303
